Data from the primary screen of doi:10.1371/journal.pone.0140310, rounded.

All values are for the listed drug together with everolimus (0.1 µM): CO[C@H]1C[C@@H]2CC[C@@H](C)[C@@](O)(O2)C(=O)C(=O)N2CCCC[C@H]2C(=O)O[C@H]([C@H](C)C[C@@H]2CC[C@@H](OCCO)[C@H](OC)C2)CC(=O)[C@H](C)/C=C(\C)[C@@H](O)[C@@H](OC)C(=O)[C@H](C)C[C@H](C)/C=C/C=C/C=C/1C

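Human melanoma cells were exposed to a pair of drugs for 72 h in 1,536-well plates and read by automated microscopy after fixing and staining. Each value is the cleaved-PARP-positive fraction of nuclei relative to DMSO-treated wells, in %, so that 100 equals the control and higher values mean more apoptosis. Every drug was used at one fixed concentration, the higher of two screened. The file gives one value for each pair and line, without errors, so small differences may be noise. Basal and induced levels differ widely between cell lines.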
This is part of the screen, not chosen by result.
An entry leaves out what has no value listed here.

Results for COc1ccc(COc2ccc(Cc3cnc(N)nc3N)cc2OC)cc1 at 5 µM are IST-MEL1: 107; A2058: 185; 501mel: 239; WM1716: 109.
Results for C/C(O)=C(\C#N)C(=O)Nc1cc(Br)ccc1Br at 10 µM are IST-MEL1: 184; A2058: 129; 501mel: 221; WM1716: 78.1.
Results for O=C(O)c1ccc2c(c1)nc(Nc1cccc(Cl)c1)c1ccncc12 at 2 µM are IST-MEL1: 72.5; A2058: 194; WM1716: 136.
Results for CN(NC(=O)CC(=O)NN(C)C(=S)c1ccccc1)C(=S)c1ccccc1 at 0.03 µM are IST-MEL1: 473; A2058: 2710; WM1716: 121.
Results for C=CCn1c(=O)c2cnc(Nc3ccc(N4CCN(C)CC4)cc3)nc2n1-c1cccc(C(C)(C)O)n1 at 0.1 µM are IST-MEL1: 153; A2058: 281; WM1716: 85.3.
Results for NC1(c2ccc(-c3nc4ccn5c(=O)[nH]nc5c4cc3-c3ccccc3)cc2)CCC1 at 2 µM are IST-MEL1: 43.4; A2058: 309; WM1716: 302.
Results for CNC(=O)c1cc(Oc2ccc(NC(=O)Nc3ccc(Cl)c(C(F)(F)F)c3)cc2)ccn1 at 2 µM are IST-MEL1: 129; A2058: 196; WM1716: 25.0.
Results for Oc1cc(-c2nc(-c3ccccc3)[nH]c2-c2ccncc2)ccc1Cl at 1 µM are IST-MEL1: 94.4; A2058: 81.0; 501mel: 61.3; WM1716: 67.1.
Results for CCCCCCCCCCCCCCCCCCOP(=O)([O-])OC1CC[N+](C)(C)CC1 at 2 µM are IST-MEL1: 355; A2058: 152; WM1716: 104.
Results for C=CCNC1=C2C[C@@H](C)C[C@H](OC)[C@H](O)[C@@H](C)/C=C(\C)[C@H](OC(N)=O)[C@@H](OC)/C=C\C=C(/C)C(=O)NC(=CC1=O)C2=O at 0.01 µM are IST-MEL1: 183; A2058: 306; WM1716: 175.
Results for COc1cc(Nc2ncc(F)c(Nc3ccc4c(n3)NC(=O)C(C)(C)O4)n2)cc(OC)c1OC at 2 µM are IST-MEL1: 235; A2058: 106; WM1716: 57.2.
Results for C[C@]12O[C@H](C[C@]1(O)CO)n1c3ccccc3c3c4c(c5c6ccccc6n2c5c31)CNC4=O at 0.02 µM are IST-MEL1: 103; A2058: 143; WM1716: 65.9.
Results for Cc1nc(Nc2ncc(C(=O)Nc3c(C)cccc3Cl)s2)cc(N2CCN(CCO)CC2)n1 at 0.02 µM are IST-MEL1: 162; A2058: 527; WM1716: 348.
Results for O=C(Nc1cc(C(F)(F)F)cc(C(F)(F)F)c1)c1cc(Cl)ccc1O at 0.08 µM are IST-MEL1: 143; A2058: 139; WM1716: 87.7.
Results for COc1ccc(C2=N[C@@H](c3ccc(Cl)cc3)[C@@H](c3ccc(Cl)cc3)N2C(=O)N2CCNC(=O)C2)c(OC(C)C)c1 at 0.5 µM are IST-MEL1: 126; A2058: 221; WM1716: 72.1.
Results for CN1CCN(c2ccc3nc(-c4c(N)c5c(F)cccc5[nH]c4=O)[nH]c3c2)CC1 at 0.5 µM are IST-MEL1: 128; A2058: 893; WM1716: 55.6.
Results for O=C1NC(=O)/C(=C/c2ccc(-c3ccc(F)cc3O)o2)S1 at 5 µM are IST-MEL1: 106; A2058: 133; 501mel: 239; WM1716: 129.
Results for Cn1cncc1[C@@](N)(c1ccc(Cl)cc1)c1ccc2c(c1)c(-c1cccc(Cl)c1)cc(=O)n2C at 0.05 µM are IST-MEL1: 132; A2058: 174; WM1716: 71.8.
Results for NC(=O)c1ccc(N(C(N)=O)c2c(F)cccc2F)nc1-c1ccc(F)cc1F at 2 µM are IST-MEL1: 42.2; A2058: 180; WM1716: 62.7.
Results for CC(C)C[C@H](NC(=O)[C@H](Cc1ccccc1)NC(=O)c1cnccn1)B(O)O at 0.005 µM are IST-MEL1: 579; A2058: 768; WM1716: 8160.
Results for CC[C@]1(O)C[C@H]2CN(CCc3c([nH]c4ccccc34)[C@@](C(=O)OC)(c3cc4c(cc3OC)N(C=O)[C@H]3[C@@](O)(C(=O)OC)[C@H](OC(C)=O)[C@]5(CC)C=CCN6CC[C@]43[C@@H]65)C2)C1 at 0.0005 µM are IST-MEL1: 81.3; A2058: 320; WM1716: 114.

2 of the entries, repeated:

* O=C(Nc1cc(C(F)(F)F)cc(C(F)(F)F)c1)c1cc(Cl)ccc1O at 0.08 µM | IST-MEL1: 143; A2058: 139; WM1716: 87.7
* COc1ccc(C2=N[C@@H](c3ccc(Cl)cc3)[C@@H](c3ccc(Cl)cc3)N2C(=O)N2CCNC(=O)C2)c(OC(C)C)c1 at 0.5 µM | IST-MEL1: 126; A2058: 221; WM1716: 72.1